Results are given in words; binding and its absence hold for the method and conditions named. Binding seen in cells or lysates may run through a third protein. A yes stands for co-enrichment or nearness to the bait. Other partners may have been found.
Molecular target: Discoidin Domain Receptor 1 (endogenous, A549 cells) (human (endogenous in A549)) (UniProt Q08345)
Assay: affinity purification with mass spectrometry; immunoprecipitation of endogenous DDR1 from A549 cells, enzymatic digestion, LC-MS

Amino acid sequences for entries named in this document (tags omitted). Residues count along the entry.
UniProt Q08345, residues 19-913: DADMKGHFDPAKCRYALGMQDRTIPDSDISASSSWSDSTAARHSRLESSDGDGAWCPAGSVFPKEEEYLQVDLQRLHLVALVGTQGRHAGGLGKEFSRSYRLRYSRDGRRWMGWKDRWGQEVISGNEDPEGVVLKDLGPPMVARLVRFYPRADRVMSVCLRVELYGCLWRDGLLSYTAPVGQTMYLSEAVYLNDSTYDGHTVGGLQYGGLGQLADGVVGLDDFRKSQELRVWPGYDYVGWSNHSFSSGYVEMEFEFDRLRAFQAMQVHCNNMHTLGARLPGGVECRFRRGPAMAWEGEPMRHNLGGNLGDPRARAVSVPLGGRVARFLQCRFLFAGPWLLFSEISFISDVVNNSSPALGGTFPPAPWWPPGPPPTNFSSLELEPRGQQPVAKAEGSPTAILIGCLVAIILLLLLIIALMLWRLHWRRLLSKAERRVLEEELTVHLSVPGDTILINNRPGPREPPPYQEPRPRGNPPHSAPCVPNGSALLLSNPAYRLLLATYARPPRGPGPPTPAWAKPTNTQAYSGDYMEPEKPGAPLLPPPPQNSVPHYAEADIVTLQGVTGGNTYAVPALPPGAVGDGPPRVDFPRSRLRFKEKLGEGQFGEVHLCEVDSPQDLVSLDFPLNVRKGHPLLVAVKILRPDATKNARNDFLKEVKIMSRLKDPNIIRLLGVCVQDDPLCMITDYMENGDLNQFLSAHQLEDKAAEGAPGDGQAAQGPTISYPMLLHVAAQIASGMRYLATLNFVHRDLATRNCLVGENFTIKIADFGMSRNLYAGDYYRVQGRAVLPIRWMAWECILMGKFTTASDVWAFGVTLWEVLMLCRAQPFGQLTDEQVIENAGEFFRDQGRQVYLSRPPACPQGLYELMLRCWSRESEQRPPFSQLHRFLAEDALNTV
UniProt Q93009: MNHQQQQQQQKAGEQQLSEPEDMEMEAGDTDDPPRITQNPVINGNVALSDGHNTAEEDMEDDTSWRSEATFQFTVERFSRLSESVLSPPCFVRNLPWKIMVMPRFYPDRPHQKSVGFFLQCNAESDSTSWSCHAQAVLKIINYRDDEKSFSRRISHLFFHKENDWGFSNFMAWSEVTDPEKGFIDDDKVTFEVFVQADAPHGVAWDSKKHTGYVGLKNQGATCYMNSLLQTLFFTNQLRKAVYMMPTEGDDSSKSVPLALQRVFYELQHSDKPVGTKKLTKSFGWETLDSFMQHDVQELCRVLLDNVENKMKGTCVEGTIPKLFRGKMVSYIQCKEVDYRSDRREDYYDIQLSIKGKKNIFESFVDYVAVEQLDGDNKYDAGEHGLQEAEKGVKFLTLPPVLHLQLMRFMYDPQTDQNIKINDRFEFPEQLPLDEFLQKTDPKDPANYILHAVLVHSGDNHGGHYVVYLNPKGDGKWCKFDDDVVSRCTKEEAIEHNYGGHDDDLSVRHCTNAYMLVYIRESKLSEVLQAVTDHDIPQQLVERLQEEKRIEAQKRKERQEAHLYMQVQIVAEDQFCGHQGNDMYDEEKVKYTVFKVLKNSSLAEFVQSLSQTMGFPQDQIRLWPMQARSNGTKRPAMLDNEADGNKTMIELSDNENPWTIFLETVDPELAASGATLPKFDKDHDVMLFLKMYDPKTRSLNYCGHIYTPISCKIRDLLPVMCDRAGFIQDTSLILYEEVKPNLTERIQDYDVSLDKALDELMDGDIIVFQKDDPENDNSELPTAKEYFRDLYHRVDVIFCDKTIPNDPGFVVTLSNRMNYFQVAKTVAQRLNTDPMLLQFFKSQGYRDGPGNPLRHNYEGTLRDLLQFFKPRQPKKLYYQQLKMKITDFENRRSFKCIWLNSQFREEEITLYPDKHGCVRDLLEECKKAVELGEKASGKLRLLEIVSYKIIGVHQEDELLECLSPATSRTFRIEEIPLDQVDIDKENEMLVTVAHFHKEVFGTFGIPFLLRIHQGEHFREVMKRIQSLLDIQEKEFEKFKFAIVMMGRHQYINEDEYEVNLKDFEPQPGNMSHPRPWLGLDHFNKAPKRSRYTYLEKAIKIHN

binding: binds
Substance: Ubiquitin-specific protease 7 (endogenous, A549 cells) (from UniProt Q93009 1-1102) (enzyme)

From article PMC12390941, “Ubiquitin-specific protease 7-mediated stabilization of discoidin domain receptor 1 drives progression of TP53-Mutant cancers” (The Journal of Biological Chemistry, 2025)
